Data reported in the supplement of paper PMC3334620.
Whole data set: some 33,000 sequences, median “E-score (-0.5 to 0.5)” near -0.016, cut for the highest 2% near 0.3. The list shows a part of the results.

Molecular target: T1, Yer184c (UniProt P39961)
T1 sequence: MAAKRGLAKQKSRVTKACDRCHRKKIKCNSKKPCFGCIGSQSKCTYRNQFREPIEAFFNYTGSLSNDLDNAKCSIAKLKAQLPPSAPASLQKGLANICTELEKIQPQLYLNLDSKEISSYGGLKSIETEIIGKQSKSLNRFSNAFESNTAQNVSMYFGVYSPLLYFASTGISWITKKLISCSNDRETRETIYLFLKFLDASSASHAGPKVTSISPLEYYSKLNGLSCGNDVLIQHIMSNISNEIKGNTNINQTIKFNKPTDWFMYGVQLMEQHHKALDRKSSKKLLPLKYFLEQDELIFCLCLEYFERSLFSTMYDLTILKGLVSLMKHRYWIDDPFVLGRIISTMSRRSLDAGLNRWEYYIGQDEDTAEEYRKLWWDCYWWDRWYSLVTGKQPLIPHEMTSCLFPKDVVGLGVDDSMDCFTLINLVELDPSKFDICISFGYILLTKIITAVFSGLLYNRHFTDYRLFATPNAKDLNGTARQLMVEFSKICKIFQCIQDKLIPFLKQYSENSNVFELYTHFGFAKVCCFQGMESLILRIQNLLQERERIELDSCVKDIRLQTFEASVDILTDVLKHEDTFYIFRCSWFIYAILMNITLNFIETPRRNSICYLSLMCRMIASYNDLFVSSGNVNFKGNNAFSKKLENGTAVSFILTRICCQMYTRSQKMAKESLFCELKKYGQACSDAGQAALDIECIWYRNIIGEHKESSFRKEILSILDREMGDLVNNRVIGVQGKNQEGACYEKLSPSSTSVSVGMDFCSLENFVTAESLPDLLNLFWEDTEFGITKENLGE
Assay: PBM E-score (8-mer binding enrichment) (E-score (-0.5 to 0.5)); higher = stronger / more preferred TF binding
Settings: protein concentration: 100 nM; construct: GST-full length
In short: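 For each ungapped eight-base word taken together with its reverse complement, the Universal PBM Analysis Suite assigned an E-score. Binding data came from GST-tagged yeast transcription factors, applied at about 100-200 nM, on universal all-10-mer Agilent arrays made double-stranded by primer extension. Fluorescent anti-GST marked bound protein, and scans were normalised with masliner.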

| Sequence | PBM E-score |
| --- | --- |
| TGTAATAA | 0.109 |
| TCACAAGA | -0.0427 |
| ATGCGTAC | 0.00954 |
| GTTTGCGA | 0.0727 |
| CGCCGAAC | 0.345 |
| CGCAGCCA | -0.159 |
| CTGTTTAC | 0.0661 |
| ACTCTGCC | -0.135 |
| ACCGAGAA | 0.282 |
| CTCCTAAC | -0.169 |
| CATGGAAA | 0.177 |
| ACAGCAGG | 0.00933 |
| AATCATCA | 0.0958 |
| CCACGCGG | -0.0278 |
| CCCATTAA | -0.26 |
| GAGTGGGA | -0.0887 |
| GCTATTTA | 0.00211 |
| GAAGCATA | 0.00797 |
| ATGACGGA | 0.198 |
| ACGCACTG | -0.142 |
| AAAAGACA | 0.171 |
| AACACGTA | 0.0731 |
| GACCGTCC | 0.016 |
| AACGTAGG | -0.213 |
| CCAAACAG | -0.157 |

4 consecutive records out of the list so far, for reference:

| Sequence | PBM E-score |
| --- | --- |
| AACACGTA | 0.0731 |
| GACCGTCC | 0.016 |
| AACGTAGG | -0.213 |
| CCAAACAG | -0.157 |

(continued)

| Sequence | PBM E-score |
| --- | --- |
| GAGTAGAC | 0.0132 |
| CAAAGCTC | -0.087 |
| GAGCGCTA | -0.0744 |
| AGTGACAT | -0.0178 |
| GCCAGGAA | -0.0728 |
| AATTCATA | 0.161 |
| CCAGTTAA | 0.184 |
| GTTATCCA | 0.0792 |
| CCATAGAC | -0.204 |
| AAGCCCAT | -0.276 |
| AAGGCCAA | -0.188 |
| AACATCAT | 0.0556 |
| CCTATTGA | -0.0147 |
| AGACCTAT | 0.0227 |
| CGGGTCAG | 0.211 |
| CGCGAAAG | 0.0067 |
| CTTACTAA | 0.0659 |
| GATGAGAC | 0.0726 |
| CTGCCTTC | -0.208 |
| GCTCACCC | -0.0666 |
| AAGCGAAG | -0.0615 |
| ATGTCTTG | -0.164 |
| AGTGAATG | 0.059 |
| ACAATCAT | 0.0332 |
| GCGCAAGA | 0.188 |

| Sequence | PBM E-score |
| --- | --- |
| TACGATCA | -0.0538 |
| CGTGTATA | -0.0305 |
| ATAGCGCA | -0.208 |
| AGGCGTCC | -0.115 |
| GGCGGAAC | 0.199 |
| CATCCAGC | 0.0644 |
| CCATGGCC | -0.171 |
| AACAAAAG | 0.214 |
| GAGCTAGA | -0.218 |
| GACTCTTA | -0.0537 |
| CCCTGAAC | 0.0873 |
| CTCTGAGA | -0.222 |
| ATTCATAG | -0.0217 |
| GCTTGTAC | 0.00313 |
| CAATTGGC | -0.0196 |
| ACCGAACA | 0.259 |
| CCGGAGCA | 0.27 |
| TGTACAAA | 0.0948 |
| AGCTCTGC | -0.361 |
| AGCTTGCG | -0.0182 |
| AATGTAGA | -0.00883 |
| AGAGTTAG | -0.0311 |
| CTGTATAA | -0.0127 |
| GACATAGA | -0.0364 |
| CTCAAAAG | 0.0257 |

| Sequence | PBM E-score |
| --- | --- |
| CGTATGCC | -0.126 |
| TACCGCCA | 0.0022 |
| TCCATTAA | 0.0096 |
| GCGCCAGA | -0.0326 |
| AAAGTGCG | -0.041 |
| GTATCCAC | -0.0729 |
| TTAGCAAA | 0.0757 |
| CTGAGAAG | -0.168 |
| ATTGCCCA | -0.102 |
| GACGGAGA | 0.17 |
| ACTAACCC | -0.0862 |
| AGTCATCG | -0.0837 |
| TCGTGTAA | 0.0721 |
| AAATTAAT | 0.226 |
| TGACGCCA | -0.18 |
| GAGCCGAC | 0.0364 |
| CGCCTATA | -0.126 |
| GCCTTAGA | -0.0429 |
| CCTACACC | -0.309 |
| CATATGGA | -0.0756 |
| CCGGTAGG | 0.0264 |
| GCTTCTCA | -0.146 |
| CACTCGGC | 0.331 |
| AGTCTTTC | -0.04 |
| CCTCGGGA | 0.00362 |

| Sequence | PBM E-score |
| --- | --- |
| AACTACTC | 0.175 |
| AACTTTAC | 0.0892 |
| ATGCACCA | -0.138 |
| AAGCGAAT | 0.114 |
| GTACCACA | 0.0348 |
| CGGGCAAC | 0.0952 |
| CATAATAG | 0.0861 |
| AGCTTCAT | 0.112 |
| CCATATCA | 0.0317 |
| CGACCCGC | -0.0185 |
| ACGCCTGG | -0.117 |
| GTTTTTTA | 0.15 |
| TAATTGAA | 0.0804 |
| CCAGCGCC | -0.184 |
| AGACGAAA | 0.219 |
| AATCCCAT | -0.136 |
| GATCCCGC | 0.0602 |
| CGAGATCG | 0.0842 |
| AAGATGCA | -0.127 |
| CCGAGTCC | 0.244 |
| CGCGTCCA | 0.0157 |
| GGATACCC | -0.0888 |
| CGCCTTTC | -0.0663 |
| ATAAATGA | 0.137 |
| CAGAGCTG | -0.242 |

| Sequence | PBM E-score |
| --- | --- |
| AATCAGAC | 0.144 |
| AGTCATAA | 0.0175 |
| CTGGGAAA | 0.0167 |
| GGAGAAAA | 0.0592 |
| AGATGACA | -0.0514 |
| TCATCTAA | 0.0759 |
| CCACAACG | -0.111 |
| GCCGTAAA | 0.339 |
| CCGGGGCG | 0.198 |
| CAATCGTG | -0.0171 |
| CATCCACG | -0.119 |
| ATTCTTTA | 0.0489 |
| GCCATGCA | -0.0622 |
| GGTCGAAC | 0.0383 |
| GGTAGTAA | -0.118 |
| AAGGTCGA | -0.146 |
| GCGCGCTA | 0.00775 |
| GTATCTCA | 0.151 |
| AGATTGCG | -0.014 |
| CACCGTCA | 0.00763 |
| CTTATAAA | 0.174 |
| CGCAAACA | 0.108 |
| CAGTGGCC | -0.0943 |
| CCCCTTGC | -0.326 |
| CTCCTGTA | -0.0268 |

| Sequence | PBM E-score |
| --- | --- |
| CAAATAGC | 0.0894 |
| ACGACCGC | -0.149 |
| ATGGCTGC | -0.188 |
| GTCTAGTA | -0.0761 |
| ACTAGTTA | 0.0593 |
| ACGGAACG | 0.212 |
| CCTAATAC | 0.0643 |
| TCAGAAGA | 0.0255 |
| CTCTATGA | -0.158 |
| AGGAGAAA | -0.0807 |
| AATAGACA | -0.0396 |
| AAATTGCG | 0.0977 |
| GACCACTA | -0.0657 |
| GTGTACAA | 0.136 |
| ACCGGAGT | 0.186 |
| GGCTTTAC | 0.207 |
| ACAAGTCC | -0.0162 |
| AGGTTTGG | -0.153 |
| ATCTAGAT | 0.00195 |
| CAGTGCCA | -0.328 |
| ATGAACTC | 0.0654 |
| ATCAGTCA | 0.156 |
